Measurements published in US10322103B2, “Compositions for prevention/prophylactic treatment of poison ivy dermatitis” (The University of Mississippi, priority 2008, dated 2019).
Some entries share one result that the patent states for a list of compounds.

System: urushiol contact dermatitis
Experiment: Induction of tolerance to poison ivy/poison oak urushiol in the guinea pig contact dermatitis model
Assay type: in vivo, Hartley guinea pigs
Conditions: for lesion score: Test #3
From the text: Animals: Hartley strains of guinea pigs (n=40) were obtained from Harlan, Indianapolis Ind. 46229. The animals were divided in the 5 groups (n=8/group) and treated as described hereunder. These animals were kept in a controlled environment with a 12-hour day and night cycle and provided feed and water ad libitum. Study design: FIG. 8 describes the general procedure for determining the efficacy of the agents produced according to the present invention.
Application sites of urushiol challenge doses on abdominal skin are shown in FIG. 9, and are described below.
Group I. Animals in this group were given the compound (4) (HDC 4-(4-aminophenyl) butyrate ester) via the intramuscular (IM) route; 300 ul of the equivalent of 20 mg/mL solution of the free catechol in 5% ethanol in each hind leg. Two weeks later these animals were sensitized with urushiol (100 uL acetone containing 1.0 mg of urushiol) on the surface skin in the neck region. Two weeks later the animals were challenged with urushiol (15 uL volume acetone containing 3.0 ug, 4.5 ug or 6.0 ug) on the abdominal skin in a volume of 15 uL. The vehicle contained 15 uL of acetone (see diagram 2). The animals were tested 3 times after sensitization: Test #1 at two weeks post sensitization, test #2 conducted at four weeks post sensitization and test #3 was conducted twelve weeks post sensitization.
Group II. Animals were given 300 uL of the equivalent of 20 mg/mL solution of the free catechol in 5% ethanol of HDC Phenyl alaninate ester (compound 3) via the IM route in each hind leg (total 600 uL). This was followed by sensitization with urushiol on the neck, and then tested with urushiol challenge on the abdominal skin as described for group I.
Group III. Animals were given 300 uL of the equivalent of 20 mg/mL solution of the free catechol in 5% ethanol of HDC Hemiglutarate ester (compound 5) via the IM route in each hind leg. This was followed, two weeks later, by sensitization with (urushiol 100 uL) on the neck, followed by abdominal skin test as described for group I.
Group IV. Animals were given 300 uL of vehicle (5% ethanol) via the IM route in each of the hind legs. This was followed, two weeks later, by sensitization and then followed by abdominal skin test as described for group I.
Group V. Animals in this group were given PBS (300 uL in each of the hind legs) via the IM route. This was followed two weeks later by sensitization and then followed by abdominal skin test as described for group I.
After challenging the animals with urushiol on their abdominal skin, the severity of Erythema and Edema were observed and scored according to the Draize scoring system as shown below. The scores were recorded at 24, 48 and 72 hrs post urushiol skin application.

[1] = Test #1, 48 hours post challenge, Draize erythema + edema
[2] = Test #1, 72 hours post challenge, Draize erythema + edema
[3] = Test #2, 24 hours post challenge

| Structure (SMILES) | skin lesion score [1] | skin lesion score [2] | skin lesion score [3] | total lesion score (Test #2, 72 hours) | lesion score (72 hours) | lesion score (48 hours) |
| --- | --- | --- | --- | --- | --- | --- |
| CCCCCCCCCCCCCCCCCc1cccc(OC(=O)[C@@H](N)Cc2ccccc2)c1OC(=O)[C@@H](N)Cc1ccccc1 [Compound 3, HDC-Phenyl Alaninate Ester] | below 1.0 | below 1.0 | below 1.0 | ≤ 1.0 | ≤ 1.0 |  |
| CCCCCCCCCCCCCCCCCc1cccc(OC(=O)CCCc2ccc(N)cc2)c1OC(=O)CCCc1ccc(N)cc1 [Compound 4] | below 1.0 | below 1.0 | below 1.0 | ≤ 1.0 | ≤ 1.0 | below 1.0 |
| CCCCCCCCCCCCCCCCCc1cccc(OC(=O)CCCC(=O)O)c1OC(=O)CCCC(=O)O [Compound 5, 5,5′(3-heptadecyl-1,2-phenylene)bis(oxy)bis(5-oxopentanoic acid)] | below 1.0 | below 1.0 | below 1.0 |  | ≤ 1.0 | below 1.0 |
